# Source: PubChem BioAssay AID540303 (National Center for Advancing Translational Sciences (NCATS), 2011)
# The whole screen tested about 330,000 compounds, of which about 1,000 (0.3%) were called active. Inconclusive means that the source gave no clear call. Such entries were picked first, then a sample of the others. The call rests on the fitted dose curve; in most records, active means well fitted inhibition curve with a large enough effect; inconclusive means small, poorly fitted or top-dose-only effect; inactive means no such curve, though single readings can be large or run the other way; tested in mouse RAW 264.7 cells. Where the call is inconclusive, the potency comes from a doubtful curve fit.
# Assay: qHTS for Inhibitors of Cell Surface uPA Generation; further: nearly all actives have a fitted effect of over 55% in size
# Conditions: cell surface uPA generation assay; series mostly up to 38.3 µM; activity change, negative = inhibition: at the top concentration
# Procedure, shortened: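 Intracellular ATP by ATPlite luminescence serves as read-out: inhibited cell-surface uPA generation prevents LF translocation, preserving ATP. Murine RAW 264.7 macrophages were treated 24 h at 37 C with five-fold serial dilutions, up to 38.3 uM final.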
# On the % scale 0 is the no-effect control and ±100 the full control effect; potency means the concentration at half of the fitted maximal effect.
Compound,Potency,"activity change, negative = inhibition"
O=C(Nc1nc2ccc(F)cc2s1)C1=NN(c2ccccc2)C(=O)CC1,"inconclusive: 14.1 µM [inhibitor, partial curve, poor fit]",–
COc1cc(C(=O)Nc2cccc(S(=O)(=O)N3CCCC3)c2)cc(OC)c1C,"inconclusive: 7.94 µM [inhibitor, partial curve]",–
COc1ccc(OC)c(/C=C2\Oc3cc(OCC(=O)N4CCC(C(=O)O)CC4)ccc3C2=O)c1,–,inactive: 7.05%
CC1S/C(=N/N=C/c2ccco2)N(Cc2ccccc2)C1=O (stereo not drawn),"inconclusive: 7.08 µM [inhibitor, partial curve, poor fit]",–
COc1ccc(C(=O)NC2c3ccccc3-c3ccccc32)cc1,"inconclusive: 7.08 µM [inhibitor, partial curve, poor fit]",–
Cc1c(NC(=O)c2ccc3c(c2)C(=O)N(Cc2ccco2)C3=O)cccc1C(=O)O,–,inactive: 2.07%
CCCCc1c(C)[nH]c2nc3ccccc3n2c1=O,–,inactive: -2.76%
Cc1cccc(-n2ccnc2SCC(=O)Nc2nnc(C)s2)c1,"inconclusive: 10 µM [inhibitor, single point]",–
O=C1N(c2ccc(Cl)cc2)C(c2ccccc2)N2CCCN12 (stereo not drawn),–,inactive: -7.91%
CN(C(=O)c1ccc(NC(=O)Cc2cccc(NC(=O)C3CCN(C(=O)C4CC4)CC3)c2)cc1)C1CC1,"inconclusive: 10 µM [inhibitor, partial curve]",–
CC(=O)c1c(NCCc2ccccc2)nc(=S)n(-c2ccccc2)c1C,"inconclusive: 10 µM [inhibitor, single point]",–
CC(C)(C)c1csc(N/N=C/c2ccc(O)cc2)n1,"inconclusive: 2.51 µM [inhibitor, partial curve]",–
Nc1n[nH]c(-c2ccc([N+](=O)[O-])cc2[N+](=O)[O-])n1,"inconclusive: 10 µM [inhibitor, partial curve, poor fit]",–
O=C(CCC1COc2ccccc2O1)Nc1ccccn1 (stereo not drawn),–,inactive: -4.61%
CCCn1c(=O)n(N)c2ccccc21,–,inactive: 4.45%
COc1ccc(CCNC(=O)CSc2cn(Cc3cccc(C)c3)c3ccccc23)cc1OC,"inconclusive: 11.2 µM [inhibitor, single point]",–
Cc1csc(SCC(=O)Nc2cc([N+](=O)[O-])ccc2F)n1,"inconclusive: 10 µM [inhibitor, partial curve, poor fit]",–
O=C1CCN(S(=O)(=O)c2ccccc2)CCN1CCOCc1ccc(Cl)cc1,–,inactive: 2.8%
Cc1nc(C/C(=N\Nc2ccccc2)c2ccc(O)cc2O)cs1,"inconclusive: 0.0562 µM [inhibitor, full curve, poor fit]",–
CC(C)c1ccc(COc2ccc(C(=O)N3CCOCC3)cc2)cc1,"inconclusive: 8.91 µM [inhibitor, single point]",–
CC(=O)N(C)c1ccc(NC(=O)Nc2ccc(C)cc2)cc1,"inconclusive: 3.55 µM [inhibitor, single point]",–
Cc1nnnn1/C(=C\c1ccccc1)C(=O)OCC(=O)Nc1cccc(S(=O)(=O)N(C)C)c1,active: 8.91 µM,–
COc1cc2c(cc1OC)C(=O)N1[C@H]3c4cc(C)ccc4OC[C@@H]3[C@H](c3ccccc3)[C@]1(C)C(=O)N2,"inconclusive: 12.6 µM [inhibitor, single point]",–

# Whole records from above.
# CC(C)c1ccc(COc2ccc(C(=O)N3CCOCC3)cc2)cc1 in the list: Potency: inconclusive: 8.91 µM [inhibitor, single point]
# CN(C(=O)c1ccc(NC(=O)Cc2cccc(NC(=O)C3CCN(C(=O)C4CC4)CC3)c2)cc1)C1CC1 in the list: Potency: inconclusive: 10 µM [inhibitor, partial curve]
# Nc1n[nH]c(-c2ccc([N+](=O)[O-])cc2[N+](=O)[O-])n1 in the list: Potency: inconclusive: 10 µM [inhibitor, partial curve, poor fit]
# COc1ccc(OC)c(/C=C2\Oc3cc(OCC(=O)N4CCC(C(=O)O)CC4)ccc3C2=O)c1 in the list: activity change, negative = inhibition: inactive: 7.05%

# Further results follow:

Compound,Potency,"activity change, negative = inhibition"
O=C(Nc1ncc(Cc2ccccc2)s1)C1CCCO1 (stereo not drawn),–,inactive: -25.3%
COc1cccc(CC2(CO)CCCN(Cc3c(C)cc(C)cc3-n3cccn3)C2)c1 (stereo not drawn),"inconclusive: 31.6 µM [inhibitor, single point]",–
CC(=O)c1ccc(NC(=O)NC2CCCc3ccccc32)cc1 (stereo not drawn),"inconclusive: 3.98 µM [inhibitor, partial curve, poor fit]",–
CCCCCCCCN1[C@@H](CC(C)=O)c2cc(C(F)(F)F)ccc2S1(=O)=O,"inconclusive: 12.6 µM [inhibitor, single point]",–
COc1ccc(Cl)cc1C(=O)O/N=C(\N)c1ccccn1,active: 10 µM,–
Cn1c(SCc2ccc(C#N)cc2Cl)nc2ccccc21,"inconclusive: 11.2 µM [inhibitor, partial curve, poor fit]",–
COc1cc(C)c(C(=O)Oc2cc(C)c(C(=O)O)c(O)c2C)c(O)c1C,"inconclusive: 0.794 µM [inhibitor, full curve, poor fit]",–
CCN(CC)c1ccc(/C=N/NC(=O)c2cc3ccccc3[nH]2)cc1,"inconclusive: 12.6 µM [inhibitor, single point]",–
OC(COc1ccc(Cl)cc1Cl)CN1CCc2ccccc2C1 (stereo not drawn),"inconclusive: 12.6 µM [inhibitor, single point]",–
Cc1ccccc1NC(=O)Cc1nc(CCl)cs1,–,inactive: 1.8%
Cc1cc(NC(=O)c2cc(-c3cccs3)nc3ccccc23)no1,"inconclusive: 12.6 µM [inhibitor, single point]",–
O=C(O)COc1ccccc1/C=N/NC(=O)c1cc(-c2ccc(Cl)cc2)nc2ccccc12,–,inactive: 1.16%
CCC(=O)c1cc(F)ccc1OCC(=O)N1CCN(c2ccc(F)cc2)CC1,"inconclusive: 1.12 µM [inhibitor, full curve, poor fit]",–
COc1cc(/C=C/C(=O)O)ccc1OS(=O)(=O)c1cc(Br)ccc1C,"inconclusive: 5.01 µM [inhibitor, full curve]",–
Cc1ccc(-c2cc(C(F)F)n3ncc(C(=O)N4CCN(c5ccccn5)CC4)c3n2)cc1,"inconclusive: 15.8 µM [inhibitor, partial curve, poor fit]",–
O=C(Nc1sc2c(c1C(=O)O)CCC2)C(=O)N1CCOCC1,"inconclusive: 12.6 µM [inhibitor, single point]",–
C=CC[n+]1ccc(/C=C2\C=Cc3cc(C)ccc3N2CC)c2ccccc21,active: 2.51 µM,–
COc1ccc(CN2CCNC(=O)C2CC(=O)NC2CC(C)(C)CC(C)(C)C2)cc1OC (stereo not drawn),"inconclusive: 8.91 µM [inhibitor, single point]",–
COc1ccc(N=Nc2ccc(O)c3ncccc23)cc1,"inconclusive: 1.58 µM [inhibitor, full curve, poor fit]",–
CN(c1ccc(C(=O)Nc2ccc3c(c2)OCCO3)cc1)S(C)(=O)=O,"inconclusive: 4.47 µM [inhibitor, partial curve, poor fit]",–
O=C(/C=C/c1ccccc1)Nc1ccc(Br)cn1,active: 1.58 µM,–
O=C(NC1CCN(Cc2ccccc2)CC1)c1cncc(Br)c1,–,inactive: 6.58%
OCc1cccc[n+]1CCc1ccccc1,–,inactive: -0.278%

Compound,Potency,"activity change, negative = inhibition"
COc1cccc(C2=NC(C)(C)NC(c3ccccc3O)C2)c1 (stereo not drawn),–,inactive: -0.163%
S=C(Nc1ccc(Cl)cc1)Nc1ccc2c(c1)OCCO2,"inconclusive: 28.2 µM [inhibitor, single point]",–
CC1(C)CC(=O)C=C(Nc2cccc(Cl)c2Cl)C1,"inconclusive: 4.47 µM [inhibitor, partial curve, poor fit]",–
C=CCOc1ccc(CN(C)C(=O)c2ccc(CNS(=O)(=O)c3ccc(C)c(C)c3)cc2)cc1,"inconclusive: 28.2 µM [inhibitor, single point]",–
N#Cc1ccc(N2Cc3ccccc3C2=NC(=O)c2cccnc2Cl)cc1,"inconclusive: 0.562 µM [inhibitor, full curve, poor fit]",–
CC(C)(C)c1ccc(-n2ncc3c2CCCC3NC(=O)C2(C(N)=O)CC2)cc1 (stereo not drawn),"inconclusive: 10 µM [inhibitor, partial curve, poor fit]",–
CCN(C[C@H]1N[C@@](Cc2ccccc2)(C(=O)OC)[C@H]2C(=O)N(C)C(=O)[C@@H]12)C(=O)c1ccc(C)cc1,"inconclusive: 5.62 µM [inhibitor, single point]",–
CCOC(=O)c1ccc(NC(=O)CSCc2ccco2)cc1,"inconclusive: 10 µM [inhibitor, single point]",–
Cc1cc(C=O)c(O)cc1O,"inconclusive: 0.355 µM [inhibitor, full curve, poor fit]",–
Cc1ccc(C)c(NS(=O)(=O)c2ccc(-c3coc(C)n3)cc2)c1,"inconclusive: 31.6 µM [inhibitor, partial curve, poor fit]",–
CCOc1ccc(N(C)S(=O)(=O)c2cc(-c3cc(C)no3)ccc2C)cc1,"inconclusive: 3.98 µM [inhibitor, partial curve]",–
O=c1c(-c2ccc(O)cc2)coc2cc(O)ccc12,"inconclusive: 5.62 µM [inhibitor, partial curve, poor fit]",–
O=C(CN1C(=O)NC2(CCCCC2)C1=O)Nc1ccc(Cl)cc1,–,inactive: -18.3%
COc1cc(N/N=C/c2ccc(N(C)C)cc2)ncn1,active: 3.55 µM,–
COc1cc(NC(=S)NC(=O)c2ccco2)ccc1NC(=O)C(C)C,"inconclusive: 11.2 µM [inhibitor, single point]",–
COc1ccc2cc(-c3[nH]ncc3CN3CCCC3c3nonc3C)ccc2c1 (stereo not drawn),"inconclusive: 22.4 µM [inhibitor, single point]",–
CC1=C(c2ccccc2)C(=S)NC(C)(C)C1,–,inactive: 2.45%
CC(=O)Nc1ccc(CNc2ncnc3ccc(-c4c(C)noc4C)cc23)cc1,"inconclusive: 2.24 µM [inhibitor, full curve]",–
CCCn1c(N/N=C\C=C\c2ccccc2)nc2c1c(=O)[nH]c(=O)n2C,"inconclusive: 12.6 µM [inhibitor, partial curve, poor fit]",–
CCC(C)(C)NC(=O)CN(Cc1ccco1)C(=O)CCC(=O)Nc1nccs1,–,inactive: -0.703%
CC(/C=N/NC(=O)c1nnn(-c2nonc2N)c1C(C)C)=C\c1ccco1,"inconclusive: 10 µM [inhibitor, single point]",–
CCC(C)NCCOc1cccc(Br)c1 (stereo not drawn),–,inactive: 4.94%
